# Patent publication US20230287217A1, “Zwitterionic Cell-Permeant and Water-Soluble Rhodamine Dyes for Quantitative Imaging Applications” (OREGON HEALTH & SCIENCE UNIVERSITY, priority 2020, published 2023)
# At least one compound was matched to its structure with a doubt left.
# Experiment: UV-Vis absorption and fluorescence spectroscopy (spectral properties in aqueous media / PBS buffer)
# Format: physicochemical
# Set-up: Brightness: unit not given here
# Description: UV-Vis and fluorescence spectra were collected on a SpectraMax M5 spectrometer with a Microplate reader (Molecular Devices, Sunnyvale, CA). All absorbance spectra were reference corrected. Extinction coefficient was calculated from Beer’s Law plots of absorbance versus concentration. Relative quantum yields are reported using TMR and SiTMR as reference.
smiles,measurement,setting,value
"Cc1cc(C(=O)NCCCn2cc(-c3cccc(Nc4ncnc5ccccc45)c3)nn2)ccc1C1=C2C=C/C(=[N+](/C)CCCS(=O)(=O)[O-])C=C2[Si](C)(C)c2cc(N(C)C)ccc21 [OF650Erl(UnT), (E)((7-(dimethylamino)-5,5-dimethyl-10-(2-methyl-4-((3-(4-(3-(quinazolin-4-ylamino)phenyl)-1H-1,2,3-triazol-1-yl)propyl)carbamoyl)phenyl)dibenzo[b,e]silin-3(5H)-ylidene)(methyl)ammonio)propane-1-sulfonate]",Brightness,,35
same,Stokes Shift (nm),,18 nm
same,FWHMabs (nm),absorption band width,33 nm
same,λabs (nm),absorption maximum,656 nm
same,FWHem (nm),emission band width,42 nm
same,λem (nm),emission maximum,674 nm
same,ε (M^-1 cm-1),extinction coefficient from Beer's Law plots,"100,500 M^-1 cm-1"
same,ϕ,"relative quantum yield, TMR and SiTMR as reference",0.35
